# From PubChem BioAssay AID493014 (National Center for Advancing Translational Sciences (NCATS), 2011)
# Screen size: about 340,000 compounds; about 170 (0.05%) were called active. Inconclusive results, whose numbers are uncertain, are shown with a selection of clear calls. Calls follow the shape of the dose curve; as a rule, active = well fitted inhibition curve with a large enough effect in the signal ratio, with a control signal flat (not every such curve was filed as active); inconclusive = small, poorly fitted or top-dose-only effect, or effect the other way, or a change in a side signal; inactive = flat fitted curve, though single readings scatter; the % refers to the signal ratio. A potency beside an inconclusive call is a rough fit, not a confirmed value.
# Assay: qHTS Assay to Find Inhibitors of Chronic Active B-Cell Receptor Signaling;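 as to activity change, negative = inhibition: plate controls were basal doxycycline-induced cells for no effect and cells given 10 µM MG132 for full effect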
# Settings: ABC-DLBCL IkBa-CBG/CBR reporter, luminescence ratio (green luciferase fused to IkBa over red control in TMD8 lymphoma cells), 4 h; activity change, negative = inhibition: at 46.1 µM (top of the series)
# Method in brief: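 Compounds up to 46 uM were incubated four hours with TMD8 cells whose green CBG68 luciferase is fused to IkappaBalpha; red CBR luminescence normalised the signal, and concentration-effect curves were fitted to fusion, red and ratio data.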
# Potency is read from the fitted curve at half-maximal effect.
SMILES,"activity change, negative = inhibition",Potency
COC(CNC(=O)c1cc(C)nn1-c1ccccc1)OC,inconclusive: -19.9%,–
O=C(NNC(=O)c1ccccc1Cl)c1ccc2c(c1)OCCO2,–,"inconclusive: 29.1 µM [falling, single point]"
O=C(O)CCC(=O)c1ccc(-c2ccccc2)cc1,–,"inconclusive: 0.224 µM [rising, full curve, poor fit]"
CNc1sc(C(=O)c2cccs2)c(N)c1-c1nc2ccccc2s1,–,"inconclusive: 35.5 µM [cytotoxic, single point]"
CCCCN(CC)C(=O)Cn1ncc2c1-c1cc(C)ccc1OC2,inconclusive: 9.23%,–
CC(C)N1CCN(S(=O)(=O)c2ccc3ccccc3c2)CC1,inconclusive: -11.6%,–
CC(C)(C)OC(=O)NC(Cc1ccccc1)C(=O)N1CCC(C(=O)NCC(=O)Nc2ccc(F)cc2)CC1 (stereo not given),–,"inconclusive: 8.91 µM [falling, partial curve, poor fit]"
COc1ccc(OC)c(/C=C/C(=O)NCCc2nc3ccccc3[nH]2)c1,inconclusive: -5.83%,–
C/C(=N\NC(=O)c1ccc(CN2CCc3ccccc3C2)cc1)c1ccccc1O,–,"inconclusive: 22.4 µM [falling, single point]"
CCc1ccc(NC(=O)CSc2nc3cc(C(=O)OC)ccc3c(=O)n2Cc2ccco2)cc1,inactive,–
CC(C)CN1C(=O)c2ccc(C(=O)Nc3ccccc3C(=O)O)cc2C1=O,–,"inconclusive: 11.2 µM [falling, partial curve, poor fit]"
CC(=O)Nc1ccccc1-c1nc2ccc(C(=O)N3CCN(c4cc(C)ccc4C)CC3)cc2[nH]c1=O,inconclusive: -0.62%,–
COc1ccc(NC(=O)c2cccc(S(=O)(=O)NCc3ccco3)c2)c(OC)c1,inconclusive: 7.7%,–
CC/C(=C\C(=O)c1ccncc1)Nc1ccc(O)cc1,–,"inconclusive: 25.1 µM [falling, single point]"
CCCN(CCC)C(=O)Cn1c(=O)n(-c2ccc(Cl)c(Cl)c2)c(=O)c2c(C)c(C(=O)N(C)C)sc21,inactive,–
Cc1ccc(NC(=O)C2C3CCCCC32)cc1[N+](=O)[O-] (stereo not given),inconclusive: 9.78%,–
O=C(NC1CCN(C(=S)Nc2ccccc2)CC1)C1CCCCC1,inconclusive: 4.95%,–
CCN1C=C(Cc2ccccc2C)C2=C(C1)C(c1ccccc1C)C(C#N)=C(N)O2 (stereo not given),inconclusive: 20.7%,–
COc1cc([N+](=O)[O-])ccc1-c1ccc(/C=N/NC(N)=O)o1,inconclusive: 2.27%,–
Cc1nn(-c2ccc(N3CCCCC3)nn2)c(C)c1CCC(=O)Nc1ccc(F)c(F)c1,inconclusive: -2.6%,–

# Entries of single compounds, quoted from the list. Order of values: activity change, negative = inhibition	Potency
# `COc1ccc(NC(=O)c2cccc(S(=O)(=O)NCc3ccco3)c2)c(OC)c1` as listed: inconclusive: 7.7%	–
# `O=C(NC1CCN(C(=S)Nc2ccccc2)CC1)C1CCCCC1` as listed: inconclusive: 4.95%	–
